Test system: A549 cells
Format: cell-based
Details: A549 non-small cell lung cancer cells, MTT, 5 days incubation

N.N.[Cl][Pt][Cl] [Cisplatin, cis-diamminedichloroplatinum (II)]
IC50: 1500 nM

Source: patent publication US20180055812A1, “METHOD AND COMPOSITIONS FOR TREATMENT OF CANCER” (priority 2008, published 2018)
